From US20050271739A1, “Methods and compositions for accelerating alcohol metabolism” (priority 2004, published 2005)

System: alcohol dehydrogenase
Assay: Effect of hormonal compounds on enzyme activity of alcohol dehydrogenase
Format: biochemical
Set-up: concentration or dose not given beside the values
Details: Control = 100.0

**Q.** For `CC/C(=C(/CC)c1ccc(O)cc1)c1ccc(O)cc1` [Diethylstilbestrol], which “Relative activity (%)” value is on record?
**A.** Its value is 259%.
